PubChem BioAssay AID624297 (National Center for Advancing Translational Sciences (NCATS), 2012)
Out of some 340,000 compounds screened, about 6,200 (1.8%) were called active. The shares of active, inactive and inconclusive entries below differ from those in the screen. Calls follow the shape of the dose curve; as a rule, active = well fitted activation curve with a large enough effect; inconclusive = small, poorly fitted or top-dose-only effect; inactive = no such curve, though single readings can be large or run the other way. Potencies beside an inconclusive call are fits to weak or partial responses and may not hold up.

assay: A quantitative high throughput screen for small molecules that induce DNA re-replication in SW480 colon adenocarcinoma cells.; also: nearly all actives have a fitted effect of over 55% in size; as to re-replication activation: % of control where 0% means no effect; details: Hoechst DNA content imaging, 48 h; re-replication activation: at 46.1 µM (top of the series) unless noted
Outline: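 Cells (250 per well) received 23 nL compound or DMSO by pin tool and were kept 48 hr at 37 C, 5% CO2. Nuclei were then stained with Hoechst for 40 min and scanned for DNA content.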
Potency is read from the fitted curve at half-maximal effect.

**Q.** With `O=C(Nc1ccccc1)Nc1cc(Cl)cc(Cl)c1` as the compound, how does the “re-replication activation” value read?
**A.** inactive: 16.3%

**Q.** With `O=C(O)COc1ccccc1/C=N/NC(=O)Cc1csc(Nc2cccc(C(F)(F)F)c2)n1` as the compound, how does the Potency read?
**A.** inconclusive: 23.1 µM [activator, single point]

**Q.** For `O=C(c1ccco1)N(CCC(c1ccccc1)c1ccco1)Cc1ccc(F)cc1` (stereo not drawn), which Potency is on record?
**A.** inconclusive: 20.6 µM [activator, single point]

**Q.** Which Potency does the source give for `N#Cc1c(-c2cccs2)cc(-c2ccccn2)nc1N` here?
**A.** inconclusive: 20.6 µM [activator, single point]

**Q.** For `Cc1ccccc1-n1c(=O)n(CCc2ccccc2)c(=O)c2[nH]cnc21`, which Potency is on record?
**A.** inconclusive: 0.58 µM [activator, partial curve, poor fit]

**Q.** For `CC(C)Oc1ccc(C(CCN)C2CCCCC2)cc1` (stereo not drawn), which Potency is on record?
**A.** inconclusive: 18.4 µM [activator, single point]

**Q.** With `CNS(=O)(=O)c1ccc2c3c(cccc13)C(=O)N2C` as the compound, how does the re-replication activation read?
**A.** inconclusive: 59.9% [activator]

**Q.** For `Cc1nnc(NC(=O)CCS(=O)(=O)c2ccccc2)s1`, which Potency is on record?
**A.** inconclusive: 20.6 µM [activator, single point]

**Q.** Which Potency does the source give for `O=C(NC(NC(=S)Nc1ccc(Cl)cc1Cl)C(Cl)(Cl)Cl)c1cccc([N+](=O)[O-])c1` (stereo not drawn) here?
**A.** active: 20.6 µM

**Q.** With `Cc1c(NC(=O)c2ccc([N+](=O)[O-])o2)cccc1-c1nc2ncccc2o1` as the compound, how does the Potency read?
**A.** inconclusive: 5.17 µM [activator, single point]

**Q.** Which Potency does the source give for `Oc1c(N=Nc2ccccn2)ccc2ccccc12` here?
**A.** inconclusive: 0.501 µM [activator, full curve, poor fit]

**Q.** Which Potency does the source give for `COc1ccc(NS(=O)(=O)c2cc(N)ccc2N2CCCC2)cc1` here?
**A.** inconclusive: 20.6 µM [activator, single point]

**Q.** For `CCOC(=O)C1CCN(c2cc(C)nc3cc(-c4cccc(F)c4)nn23)CC1`, which Potency is on record?
**A.** inconclusive: 10.3 µM [activator, partial curve]

**Q.** With `COc1ccc(C)cc1NC(=O)C1CCCN(S(=O)(=O)c2ccc3[nH]c(=O)ccc3c2)C1` (stereo not drawn) as the compound, how does the Potency read?
**A.** inconclusive: 1.03 µM [activator, partial curve]

**Q.** With `C#Cc1cccc(C(=O)N2CCCC(C(=O)c3ccc(OC)cc3C)C2)c1` (stereo not drawn) as the compound, how does the “re-replication activation” value read?
**A.** inactive: 0.675%

**Q.** With `CCCCn1c(N)c(N(CCOC)C(=O)COC(=O)COc2cc(C)c(Cl)cc2C(C)C)c(=O)[nH]c1=O` as the compound, how does the “re-replication activation” value read?
**A.** inactive: -563%

**Q.** Which Potency does the source give for `N#C/C(=C(\O)c1cc(Cl)sc1Cl)c1nc2ccccc2[nH]1` here?
**A.** inconclusive: 29.1 µM [activator, single point]

**Q.** For `COc1ccc(-n2c(=O)c3c4c(sc3n(CC(=O)Nc3cc(C)[nH]n3)c2=O)CCCC4)c(OC)c1`, which Potency is on record?
**A.** inconclusive: 29.1 µM [activator, single point]
